This test deals with T1, linker histone H5 (chicken), P02259.
T1 chain: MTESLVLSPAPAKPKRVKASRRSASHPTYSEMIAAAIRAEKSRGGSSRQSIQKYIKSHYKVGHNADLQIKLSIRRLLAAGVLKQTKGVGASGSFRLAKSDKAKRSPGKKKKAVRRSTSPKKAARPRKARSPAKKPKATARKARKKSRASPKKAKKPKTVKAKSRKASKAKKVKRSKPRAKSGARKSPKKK
The test is described as follows: cryo-EM structure; H5-chromatin fiber (dodecanucleosome) reconstituted by salt dialysis from 12x 177 bp 601 DNA, histone octamers and an equal molar amount of H5; HE buffer (10 mM HEPES, pH 8.0, 0.1 mM EDTA); fixed with 0.2% glutaraldehyde; 3.6 Å; both purified. The conditions noted are these: remark: other sources report otherwise.

These are yes or no findings as the source states them, for the method shown. Some results given as binding are weak or reduced against the parent protein; the word gives no strength. Where a sequence is shown, tags or fusion partners need not be part of it.

This is an account of results in article PMC11442585.

B1: linker histone H5, P02259 1-190 (protein)
chain: T1 chain
As to B1, the binding result is “binds”.
